PubChem BioAssay AID1224831, NIAID | 2016
Here is one part, drawn at random, of about 3,500 reagents tested. 731 of them (21%) were called active. 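Active means either lowered or raised reporter signal; the gene-median score did not drive the per-siRNA calls.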 Entries without a mark were called inactive. The numbers tell different reagents against one gene apart. No sequences are given here.

Purpose: 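Genes that support or restrain LPS-induced TNF-alpha reporter activity in macrophage-like cells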 (follow-up of hits)
Cells: human THP-1 B5 monocytic leukaemia cells carrying a TNF promoter luciferase reporter, made macrophage-like with PMA
Reagents: single siRNA against human genes, 50 nM
Timing: about 68 h of knock-down, then 4 h LPS
Treatment: LPS (Salmonella minnesota, TLR-grade) at 10 ng/ml for 4 h; PMA 5 ng/ml present during knock-down
Read-out: 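TNF promoter reporter read as dual luciferase ratio after 4 h LPS, normalised per plate to its median, given as replicate mean robust z-score per siRNA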
Scale: TNF reporter z-score: higher = stronger LPS-induced TNF reporter signal; z-score, median over gene's siRNAs: higher = stronger TNF reporter signal across the gene's siRNAs
Call rule: 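Active when the replicate mean z-score is about -1 or lower, or about 1.5 or higher; lowered and raised TNF reporter signal both count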
Meaning of the calls: active = changed TNF reporter (either direction); inactive = little change

What is on record for CPA3 #1?
TNF reporter z-score, replicate mean: 2.29 (active); z-score, median over gene's siRNAs: 0.455

Which result is listed for CPA3 #2?
TNF reporter z-score, replicate mean: 0.5; z-score, median over gene's siRNAs: 0.455

With CPA3 #3, what was measured?
TNF reporter z-score, replicate mean: -1.18 (active); z-score, median over gene's siRNAs: 0.455

Which result is listed for CPA3 #4?
TNF reporter z-score, replicate mean: 0.41; z-score, median over gene's siRNAs: 0.455

What is on record for CPA3 #5?
TNF reporter z-score, replicate mean: 4.87 (active); z-score, median over gene's siRNAs: 0.455

With CPA3 #6, how do the results read?
TNF reporter z-score, replicate mean: 0.16; z-score, median over gene's siRNAs: 0.455

With ZNF655 #1, how do the results read?
TNF reporter z-score, replicate mean: 0.23; z-score, median over gene's siRNAs: 1.01

With ZNF655 #2, what was measured?
TNF reporter z-score, replicate mean: 0.85; z-score, median over gene's siRNAs: 1.01

For ZNF655 #3, how do the results read?
TNF reporter z-score, replicate mean: -0.1; z-score, median over gene's siRNAs: 1.01

How did the screen score ZNF655 #4?
TNF reporter z-score, replicate mean: 1.84 (active); z-score, median over gene's siRNAs: 1.01

How did the screen score ZNF655 #5?
TNF reporter z-score, replicate mean: 1.76 (active); z-score, median over gene's siRNAs: 1.01

What did the screen give for ZNF655 #6?
TNF reporter z-score, replicate mean: 1.17; z-score, median over gene's siRNAs: 1.01

What is on record for ZNF93 #1?
TNF reporter z-score, replicate mean: -1.86 (active); z-score, median over gene's siRNAs: 0.465

Which result is listed for ZNF93 #2?
TNF reporter z-score, replicate mean: 1.04; z-score, median over gene's siRNAs: 0.465

With ZNF93 #3, how do the results read?
TNF reporter z-score, replicate mean: 0.27; z-score, median over gene's siRNAs: 0.465

With ZNF93 #4, what does the deposit list?
TNF reporter z-score, replicate mean: 0.72; z-score, median over gene's siRNAs: 0.465

What did the screen give for ZNF93 #5?
TNF reporter z-score, replicate mean: 0.66; z-score, median over gene's siRNAs: 0.465

Which result is listed for ZNF93 #6?
TNF reporter z-score, replicate mean: 0.02; z-score, median over gene's siRNAs: 0.465
